# PubChem BioAssay AID1508597, Cure First | 2020
# Assay: 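Survival screen with siRNA in ovarian cancer cells derived from patients, with or without rucaparib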 (primary screen)
# Cell system: human ovarian carcinoma lines grown from tumours: OCI-P5x (papillary serous) and OCI-C5x (clear cell)
# Knock-down reagent: siRNA pool against human genes, 1.25 pmol siRNA per well
# Timing: 72 h or 96 h, depending on the cell culture
# Conditions: rucaparib 20 µM (about IC30) or vehicle, present until read-out
# Measured: 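Luminescent ATP-based viability assay read 72 or 96 h after transfection, depending on culture, given as normalised percent viability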
# Reading the numbers: viability, normalised: higher = more viable cells remaining
# Hit rule: 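a well counts as a hit if its normalised viability is under 80 percent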
# Calls: active = viability under 80%; inactive = viability 80% or more
# Here is a random part of about 2,100 reagents. 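Calls flag viability under 80% in either arm, not effects specific to rucaparib; the reference for percent is not stated.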 Entries without a mark were called inactive. The record does not give: the 100% reference.
gene knocked down,rucaparib or vehicle,cell line,technical replicate,"viability, normalised (%)"
EIF2AK2,Rucaparib,OCI-C5x (clear cell),1,28.1 (active)
EIF2AK2,Rucaparib,OCI-C5x (clear cell),2,28.7 (active)
EIF2AK2,Rucaparib,OCI-C5x (clear cell),3,29.4 (active)
EIF2AK2,Rucaparib,OCI-P5x (serous),1,70.1 (active)
EIF2AK2,Rucaparib,OCI-P5x (serous),2,90.1
EIF2AK2,Rucaparib,OCI-P5x (serous),3,75.4 (active)
EIF2AK2,Vehicle,OCI-C5x (clear cell),1,29.8 (active)
EIF2AK2,Vehicle,OCI-C5x (clear cell),2,40.8 (active)
EIF2AK2,Vehicle,OCI-C5x (clear cell),3,40.2 (active)
EIF2AK2,Vehicle,OCI-P5x (serous),1,79.3 (active)
EIF2AK2,Vehicle,OCI-P5x (serous),2,53.9 (active)
EIF2AK2,Vehicle,OCI-P5x (serous),3,85.7
MLH3,Rucaparib,OCI-C5x (clear cell),1,57.9 (active)
MLH3,Rucaparib,OCI-C5x (clear cell),2,51.2 (active)
MLH3,Rucaparib,OCI-C5x (clear cell),3,52.8 (active)
MLH3,Rucaparib,OCI-P5x (serous),1,79.2 (active)
MLH3,Rucaparib,OCI-P5x (serous),2,90.2
MLH3,Rucaparib,OCI-P5x (serous),3,60.2 (active)
MLH3,Vehicle,OCI-C5x (clear cell),1,48 (active)
MLH3,Vehicle,OCI-C5x (clear cell),2,58 (active)
MLH3,Vehicle,OCI-C5x (clear cell),3,39.7 (active)
MLH3,Vehicle,OCI-P5x (serous),1,65.6 (active)
MLH3,Vehicle,OCI-P5x (serous),2,80.3
MLH3,Vehicle,OCI-P5x (serous),3,71.8 (active)
PCDHB4,Rucaparib,OCI-C5x (clear cell),1,47.4 (active)
PCDHB4,Rucaparib,OCI-C5x (clear cell),2,37.7 (active)
PCDHB4,Rucaparib,OCI-C5x (clear cell),3,39.3 (active)
PCDHB4,Rucaparib,OCI-P5x (serous),1,47.5 (active)
PCDHB4,Rucaparib,OCI-P5x (serous),2,58.3 (active)
PCDHB4,Rucaparib,OCI-P5x (serous),3,55.3 (active)
PCDHB4,Vehicle,OCI-C5x (clear cell),1,33.9 (active)
PCDHB4,Vehicle,OCI-C5x (clear cell),2,32.8 (active)
PCDHB4,Vehicle,OCI-C5x (clear cell),3,32.6 (active)
PCDHB4,Vehicle,OCI-P5x (serous),1,58 (active)
PCDHB4,Vehicle,OCI-P5x (serous),2,60.3 (active)
PCDHB4,Vehicle,OCI-P5x (serous),3,76.5 (active)
DGKG,Rucaparib,OCI-C5x (clear cell),1,42.8 (active)
DGKG,Rucaparib,OCI-C5x (clear cell),2,45.5 (active)
DGKG,Rucaparib,OCI-C5x (clear cell),3,37.5 (active)
DGKG,Rucaparib,OCI-P5x (serous),1,75 (active)
DGKG,Rucaparib,OCI-P5x (serous),2,86.8
DGKG,Rucaparib,OCI-P5x (serous),3,79.7 (active)
DGKG,Vehicle,OCI-C5x (clear cell),1,54.2 (active)
DGKG,Vehicle,OCI-C5x (clear cell),2,44.5 (active)
DGKG,Vehicle,OCI-C5x (clear cell),3,58.1 (active)
DGKG,Vehicle,OCI-P5x (serous),1,80.7
DGKG,Vehicle,OCI-P5x (serous),2,76.7 (active)
DGKG,Vehicle,OCI-P5x (serous),3,76.8 (active)

7 entries already listed, arranged by “viability, normalised (%)”, ascending.
gene knocked down,rucaparib or vehicle,cell line,technical replicate,"viability, normalised (%)"
EIF2AK2,Vehicle,OCI-C5x (clear cell),1,29.8 (active)
EIF2AK2,Vehicle,OCI-C5x (clear cell),3,40.2 (active)
EIF2AK2,Vehicle,OCI-C5x (clear cell),2,40.8 (active)
EIF2AK2,Vehicle,OCI-P5x (serous),2,53.9 (active)
EIF2AK2,Rucaparib,OCI-P5x (serous),3,75.4 (active)
EIF2AK2,Vehicle,OCI-P5x (serous),1,79.3 (active)
EIF2AK2,Vehicle,OCI-P5x (serous),3,85.7
